Data reported in patent US9701716B2 (Centaur, Inc., priority 2014, dated 2017).
End groups of sequences in plain letters are not given here.

Test: peptide made by a vendor
Conditions: whole synthesis, RP-HPLC, TFA salt

## GLARILLRWLFFRG
  final HPLC purity: >97%
